Test results as given in PubChem BioAssay AID330 (DTP/NCI, 2004).
The list does not hold the whole screen: it is rich in T/C values a quarter to a half above the control, in often repeated tests (any T/C) and in doses without a T/C. Other doses and runs of a compound stand elsewhere. T/C gives the treated animals as a percentage of the vehicle group. Some entries give survivors of the animals treated and no T/C: the source holds a T/C of zero for them, seemingly a mark for toxic or unscored doses. Some doses without a T/C left all or most animals alive at the check, yet need not have been tolerated: survival well below the control is almost never listed, so the zero probably covers shortened survival too. Survivors were counted at the toxicity check, usually on the fifth day, unless a day is given; later deaths do not show. Schedules are NCI's codes, read here as Q, the interval in days (D) or hours (H), X, the number of doses. Some doses were run more than once; the values are given in rising order. Where survival is the endpoint, this PubChem deposit counts one and a half times the control or more as active, and values a quarter to a half above the control carry no call in these data; other NCI protocols may use other cut-offs. Some T/C values are followed by the survivors on the day toxicity was checked, most often the fifth; without a count, all were alive then.

Test system: P388 leukemia ip, CD2F1 mice, survival T/C
Assay: NCI In Vivo Anticancer Drug Screen. Data for tumor model P388 Leukemia (intraperitoneal) in CD2F1 (CDF1) mice
Conditions: T/C endpoint: median survival time, higher T/C = longer survival
[1] = dose: 100.0 mg/kg/injection, schedule: Q01DX009 (ip), vehicle: saline
[2] = dose: 200.0 mg/kg/injection, schedule: Q01DX009 (ip), vehicle: saline
[3] = dose: 200.0 mg/kg/injection, schedule: Q01DX005 (ip), vehicle: Klucel (hydroxypropylcellulose) (HPC)
[4] = dose: 400.0 mg/kg/injection, schedule: Q04DX002 (ip), vehicle: saline with Tween-80
[5] = dose: 50.0 mg/kg/injection, schedule: Q01DX009 (ip), vehicle: Klucel (hydroxypropylcellulose) (HPC)
[6] = dose: 100.0 mg/kg/injection, schedule: Q01DX009 (ip), vehicle: saline with Tween-80
[7] = dose: 200.0 mg/kg/injection, schedule: Q01DX009 (ip), vehicle: saline with Tween-80
[8] = dose: 200.0 mg/kg/injection, schedule: Q01DX009 (ip), vehicle: Klucel (hydroxypropylcellulose) (HPC)
[9] = dose: 50.0 mg/kg/injection, schedule: Q01DX009 (ip), vehicle: saline with Tween-80

## O=C1C=C2C(=CCOC2O)O1 (stereo not given)
dose: 0.5 mg/kg/injection, schedule: Q01DX009 (ip), vehicle: Klucel (hydroxypropylcellulose) (HPC)
  T/C: 125 and 128 % of control
dose: 1.0 mg/kg/injection, schedule: Q01DX009 (ip), vehicle: Klucel (hydroxypropylcellulose) (HPC)
  T/C: 125 and 128 % of control
dose: 1.0 mg/kg/injection, schedule: Q01DX009 (ip), vehicle: saline with Tween-80
  T/C: 125 % of control
dose: 3.0 mg/kg/injection, schedule: Q01DX009 (ip), vehicle: saline with Tween-80
  T/C: 134 % of control
dose: 3.0 mg/kg/injection, schedule: Q04DX003 (ip), vehicle: saline with Tween-80
  T/C: 125 % of control
dose: 8.0 mg/kg/injection, schedule: Q01DX009 (ip), vehicle: Klucel (hydroxypropylcellulose) (HPC)
  survivor count: 1 of 6
dose: 10.0 mg/kg/injection, schedule: Q01DX009 (ip), vehicle: saline with Tween-80
  survivor count: 2 of 6

## C[As](C)SCC(NC(=O)CCC(N)C(=O)O)C(=O)NCC(=O)O (stereo not given)
dose: 12.5 mg/kg/injection, schedule: Q01DX009 (ip), vehicle: saline
  T/C: 125 % of control [5 of 6 alive]
dose: 25.0 mg/kg/injection, schedule: Q01DX009 (ip), vehicle: saline
  T/C: 142 % of control
dose: 50.0 mg/kg/injection, schedule: Q01DX009 (ip), vehicle: saline
  T/C: 125 % of control [5 of 6 alive]
[1]
  T/C: 124, 127, 134, 164 % of control
[2]
  survivor count: 5 of 6
dose: 400.0 mg/kg/injection, schedule: Q01DX009 (ip), vehicle: saline
  survivor count: 0 of 6

## Cc1ccc(S(=O)(=O)OCCOCCOc2ccc3ccccc3c2-c2c(OCCOS(=O)(=O)c3ccc(C)cc3)ccc3ccccc23)cc1
dose: 400.0 mg/kg/injection, schedule: Q01DX001 (ip), vehicle: saline with Tween-80
  survivor count: 0 of 6

## CCCCCCCCCCCC[N+]1(CCCCCCCCCCCC)CCCC(C)C1 (stereo not given)
dose: 0.37 mg/kg/injection, schedule: Q01DX009 (ip), vehicle: Klucel (hydroxypropylcellulose) (HPC)
  T/C: 149 % of control
dose: 1.5 mg/kg/injection, schedule: Q01DX009 (ip), vehicle: Klucel (hydroxypropylcellulose) (HPC)
  survivor count: 0 of 6
dose: 3.0 mg/kg/injection, schedule: Q01DX009 (ip), vehicle: Klucel (hydroxypropylcellulose) (HPC)
  survivor count: 0 of 6
dose: 6.0 mg/kg/injection, schedule: Q01DX009 (ip), vehicle: Klucel (hydroxypropylcellulose) (HPC)
  survivor count: 0 of 6

## Cc1cc2ccccc2c[n+]1[O-]
[3]
  survivor count: 0 of 5

## O=NN(Cc1cccnc1)C(=O)NC1CCCCC1
dose: 200.0 mg/kg/injection, schedule: Q01DX001 (ip), vehicle: distilled water + Tween-80
  survivor count: 3 of 6
dose: 400.0 mg/kg/injection, schedule: Q01DX001 (ip), vehicle: distilled water + Tween-80
  survivor count: 0 of 6

## CC(/C=C/c1ccc2c(c1)OCO2)=N\NC(N)=S
dose: 12.5 mg/kg/injection, schedule: Q01DX005 (ip), vehicle: saline with Tween-80
  survivor count: 1 of 6
dose: 25.0 mg/kg/injection, schedule: Q01DX005 (ip), vehicle: saline with Tween-80
  survivor count: 0 of 6
dose: 50.0 mg/kg/injection, schedule: Q01DX005 (ip), vehicle: saline with Tween-80
  survivor count: 0 of 6
dose: 100.0 mg/kg/injection, schedule: Q01DX005 (ip), vehicle: saline with Tween-80
  survivor count: 0 of 6
dose: 200.0 mg/kg/injection, schedule: Q01DX005 (ip), vehicle: saline with Tween-80
  survivor count: 0 of 6

## CCON1CCC(OC(=O)CC)(c2ccccc2)C(C)C1 (stereo not given)
dose: 400.0 mg/kg/injection, schedule: Q01DX001 (ip), vehicle: saline
  survivor count: 1 of 6

## NC(=S)N/N=C1/C(=O)N(c2ccc(S(N)(=O)=O)cc2)C(=O)C1C(=O)Nc1ccc(S(N)(=O)=O)cc1 (stereo not given)
dose: 200.0 mg/kg/injection, schedule: Q04DX002 (ip), vehicle: saline with Tween-80
  survivor count: 1 of 6
[4]
  survivor count: 0 of 6

## CCC12C=CCN3CC[C@@]4(c5cc([C@@]6(C(=O)OC)C[C@@H]7CN(CCc8c6[nH]c6ccccc86)C[C@](O)(CC)C7)c(OC)cc5N(C)[C@H]4[C@@](O)(C(=O)OC)[C@@H]1OC(=O)CCCCCCCCCCCN1C(=O)C=CC1=O)[C@H]32 (stereo not given in full)
dose: 6.25 mg/kg/injection, schedule: Q01DX001 (ip), vehicle: saline
  T/C: 134 % of control
dose: 12.5 mg/kg/injection, schedule: Q01DX001 (ip), vehicle: other
  T/C: 134 % of control
dose: 12.5 mg/kg/injection, schedule: Q01DX001 (ip), vehicle: saline
  T/C: 131 % of control
dose: 50.0 mg/kg/injection, schedule: Q01DX001 (ip), vehicle: other
  survivor count: 1 of 6
dose: 50.0 mg/kg/injection, schedule: Q01DX001 (ip), vehicle: saline with Tween-80
  survivor count: 0 of 6
dose: 100.0 mg/kg/injection, schedule: Q01DX001 (ip), vehicle: saline with Tween-80
  survivor count: 0 of 6

## CP1(=S)C=C(NC2CCCCC2)CC1 (stereo not given)
dose: 25.0 mg/kg/injection, schedule: Q01DX009 (ip), vehicle: Klucel (hydroxypropylcellulose) (HPC)
  survivor count: 6 of 6
[5]
  survivor count: 6 of 6

## CN(C)C1C(O)C2Oc3c(cc(O)c4c3C(=O)c3cc5c(c(O)c3C4=O)C(OCC3COC(C)(C)O3)CC(C)(O)C5)C(C)(O2)C1O (stereo not given)
dose: 32.0 mg/kg/injection, schedule: Q01DX009 (ip), vehicle: other
  survivor count: 1 of 6

## CC1(C)CCCC12C=NCC2 (stereo not given)
[6]
  survivor count: 0 of 6
[7]
  survivor count: 0 of 6

## C1=Cc2cc(CN3CCOCC3)ccc2Nc2ccccc21
dose: 240.0 mg/kg/injection, schedule: Q01DX005 (ip), vehicle: Klucel (hydroxypropylcellulose) (HPC)
  survivor count: 6 of 6

## Cc1cc(NCCN(C(C)C)C(C)C)nc(Nc2nc3cc(Cl)c(Cl)cc3[nH]2)n1
dose: 25.0 mg/kg/injection, schedule: Q01DX009 (ip), vehicle: saline sonified
  survivor count: 4 of 6

## O=C(N=C1SC(=NC2CCCCC2)N1C1CCCCC1)c1ccccc1
dose: 400.0 mg/kg/injection, schedule: Q01DX001 (ip), vehicle: Klucel (hydroxypropylcellulose) (HPC)
  survivor count: 0 of 6

## Cc1ccc(N)c(S)c1
[5]
  T/C: 130 % of control
dose: 100.0 mg/kg/injection, schedule: Q01DX009 (ip), vehicle: Klucel (hydroxypropylcellulose) (HPC)
  survivor count: 6 of 6
[8]
  survivor count: 3 of 6

## CN1CCCC(C(=O)c2ccccc2)C1 (stereo not given)
[1]
  survivor count: 3 of 6
[2]
  survivor count: 0 of 6

## COC1=C(OC)C(=O)C(Sc2ccc3ccccc3c2)=CC1=O
[9]
  survivor count: 3 of 6
[6]
  survivor count: 0 of 6 and 3 of 6
[7]
  survivor count: 0 of 6

## CC(=NC(C)C)Nc1ccc(Cl)cc1
[9]
  survivor count: 6 of 6
[6]
  survivor count: 1 of 6
[7]
  survivor count: 3 of 6

## O=C(NCCCl)Oc1ccc(Cl)cc1Cl
dose: 100.0 mg/kg/injection, schedule: Q01DX005 (ip), vehicle: Klucel (hydroxypropylcellulose) (HPC)
  survivor count: 6 of 6
[3]
  survivor count: 6 of 6

## CC(C)CSc1nc2ccc(NC(=O)/C=C/C(=O)O)cc2s1
[8]
  survivor count: 2 of 6

## CC(ON)C(=O)O (stereo not given)
dose: 100.0 mg/kg/injection, schedule: Q01DX005 (ip), vehicle: saline
  survivor count: 0 of 6
dose: 200.0 mg/kg/injection, schedule: Q01DX005 (ip), vehicle: saline
  survivor count: 0 of 6

## CNC(=S)NNc1ccc(Cl)c(Cl)c1
dose: 100.0 mg/kg/injection, schedule: Q01DX009 (ip), vehicle: other
  survivor count: 4 of 6
dose: 200.0 mg/kg/injection, schedule: Q01DX009 (ip), vehicle: other
  survivor count: 0 of 6
dose: 400.0 mg/kg/injection, schedule: Q01DX009 (ip), vehicle: other
  survivor count: 0 of 6

## CN(C)[C](=[Au][Cl])c1ccccc1
dose: 200.0 mg/kg/injection, schedule: Q04DX002 (ip), vehicle: Klucel (hydroxypropylcellulose) (HPC)
  survivor count: 2 of 6
dose: 400.0 mg/kg/injection, schedule: Q04DX002 (ip), vehicle: Klucel (hydroxypropylcellulose) (HPC)
  survivor count: 0 of 6

## CC1(C)C(c2ccccc2)C1(Cl)Cl (stereo not given)
[4]
  survivor count: 6 of 6
